No constants are given. Whether binding was seen depends on the method and setting.
Biological target: prototype foamy virus (PFV) PR-RT (prototype foamy virus (PFV)) (UniProt P14350)
Assay: SEC; Superdex 200 HR 10/30 calibrated with catalase, aldolase, ovalbumine and chymotrypsinogen; 0.5 ml/min; 10 nmol PFV PR-RT in 50 mM Na2HPO4/NaH2PO4 pH 7.4, 300 mM NaCl, 0.5 mM DTT; both purified

## prototype foamy virus (PFV) PR-RT (from UniProt P14350 1-751) (enzyme)
  binding: no binding (tested: 10 nmol loaded)
